According to patent US10124076B2, “Imaging agents and methods of use thereof” (Huntington Medical Research Institutes, priority 2007, dated 2018):

Test: Hyperpolarized 13C imaging at 1.5 T of syringes, concentration titration against 4.25 M 1-13C acetate phantom

CCC(=O)OCCO [^13C hydroxyethyl propionate, hydroxyethyl propionate]
signal enhancement (0.64 mM reagent equivalent to 4.25 M 13C reference phantom, 1.5 T): over 6,000 times | lowest detectable concentration of hyperpolarized reagent (1.5 T system, FIESTA pulse sequence (Example 1 text)): 0.0001 µM | lowest detectable concentration of hyperpolarized reagent (1.5 T, 3 ml syringes, surface coil (FIG. 5 legend)): 100 µM
